Test results reported in article PMC9440430, “An intrinsically disordered transcription activation domain increases the DNA binding affinity and reduces the specificity of NFκB p50/RelA”.
These are yes or no findings as the source states them, for the method shown. Some entries that bind do so weakly or less than the wild type. For some assays here: Where a sequence is shown, tags or fusion partners need not be part of it.

Columns and labels:
Experiment in all cases: SEC; analytical SEC on Superdex 200 10/300 at 4 °C in 25 mM Tris, 150 mM NaCl, 0.5 mM EDTA, 1 mM DTT, pH 7.5; 5 and 10 μM p50/RelAFL and p50/RelARHD (chains co-expressed and co-purified), 10 and 20 μM RelATAD; both purified
[1] = target: N-terminal hexahistidine murine p50 (residues 39-350) (murine) (UniProt P25799)
[2] = target: T1, p50_(39-350)/RelA_(19-549) heterodimer (murine), P25799; conditions: remark: other sources report otherwise
T1 chain 1: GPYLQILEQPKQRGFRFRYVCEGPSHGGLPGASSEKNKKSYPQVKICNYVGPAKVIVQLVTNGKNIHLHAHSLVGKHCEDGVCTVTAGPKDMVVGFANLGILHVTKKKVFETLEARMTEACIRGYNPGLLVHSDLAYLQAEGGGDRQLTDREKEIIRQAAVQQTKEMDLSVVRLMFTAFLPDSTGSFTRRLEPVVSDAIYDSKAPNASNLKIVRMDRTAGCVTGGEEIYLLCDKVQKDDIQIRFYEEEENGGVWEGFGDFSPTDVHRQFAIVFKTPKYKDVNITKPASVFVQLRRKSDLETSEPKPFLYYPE
T1 chain 2: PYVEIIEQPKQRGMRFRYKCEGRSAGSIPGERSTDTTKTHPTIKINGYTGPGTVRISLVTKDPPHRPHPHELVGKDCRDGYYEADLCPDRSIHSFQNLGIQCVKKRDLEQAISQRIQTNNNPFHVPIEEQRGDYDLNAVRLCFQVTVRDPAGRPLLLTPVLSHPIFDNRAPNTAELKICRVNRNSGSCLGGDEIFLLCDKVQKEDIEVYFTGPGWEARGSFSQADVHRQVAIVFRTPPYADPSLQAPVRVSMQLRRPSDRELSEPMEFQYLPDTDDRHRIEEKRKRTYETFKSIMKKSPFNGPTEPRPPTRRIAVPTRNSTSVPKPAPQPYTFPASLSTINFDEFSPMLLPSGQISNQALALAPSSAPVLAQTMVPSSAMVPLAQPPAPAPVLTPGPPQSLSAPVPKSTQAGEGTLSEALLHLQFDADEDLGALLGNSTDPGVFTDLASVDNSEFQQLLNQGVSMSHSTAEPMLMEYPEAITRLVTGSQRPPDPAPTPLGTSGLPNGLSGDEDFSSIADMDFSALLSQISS

[3] = target: T2, p50_(39-350)/RelA_(19-321) heterodimer (murine), P25799; conditions: remark: other sources report otherwise
T2 chain 1: T1 chain 1
T2 chain 2: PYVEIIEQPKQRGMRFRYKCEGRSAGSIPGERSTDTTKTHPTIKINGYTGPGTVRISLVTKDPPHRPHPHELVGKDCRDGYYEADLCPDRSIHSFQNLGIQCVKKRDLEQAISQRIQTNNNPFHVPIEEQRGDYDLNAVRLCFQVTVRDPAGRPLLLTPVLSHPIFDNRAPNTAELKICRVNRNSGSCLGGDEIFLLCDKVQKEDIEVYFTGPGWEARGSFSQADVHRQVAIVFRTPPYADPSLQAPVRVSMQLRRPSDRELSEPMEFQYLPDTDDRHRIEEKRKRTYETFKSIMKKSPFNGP

[4] = target: RelATAD (RelA residues 340-549) with a C-terminal hexahistidine tag (murine) (UniProt Q04207)

With “murine RelA residues 19 to 549 (from UniProt Q04207 19-549) (domain or fragment)” the binding [1] was “binds”.

In the case of “murine RelA residues 19-321 (from UniProt Q04207 19-321) (domain or fragment)”, the binding [1] is reported as “binds”.

B1: p50_(39-350)/RelA_(19-549) heterodimer, P25799 39-350; Q04207 19-549 (complex)
chain 1: T1 chain 1
chain 2: T1 chain 2
For B1, the binding [2] was “no binding (tested: 10 μM)”.

B2: p50_(39-350)/RelA_(19-321) heterodimer, P25799 39-350; Q04207 19-321 (complex)
chain 1: T1 chain 1
chain 2: T2 chain 2
In the case of B2, the binding [3] is reported as “no binding (tested: 10 μM)”.

B3: RelATAD (RelA residues 340-549) with a C-terminal hexahistidine tag (domain or fragment, UniProt Q04207 340-549)
chain: SVPKPAPQPYTFPASLSTINFDEFSPMLLPSGQISNQALALAPSSAPVLAQTMVPSSAMVPLAQPPAPAPVLTPGPPQSLSAPVPKSTQAGEGTLSEALLHLQFDADEDLGALLGNSTDPGVFTDLASVDNSEFQQLLNQGVSMSHSTAEPMLMEYPEAITRLVTGSQRPPDPAPTPLGTSGLPNGLSGDEDFSSIADMDFSALLSQISS
In the case of B3, the binding [4] is reported as “no binding (tested: 20 μM)”.
